Consider two sequences from article PMC5050335.

The data set addresses T1, Cap0037 (Clostridium acetobutylicum ATCC 824) (UniProt Q97TR1).
T1 sequence (looked up): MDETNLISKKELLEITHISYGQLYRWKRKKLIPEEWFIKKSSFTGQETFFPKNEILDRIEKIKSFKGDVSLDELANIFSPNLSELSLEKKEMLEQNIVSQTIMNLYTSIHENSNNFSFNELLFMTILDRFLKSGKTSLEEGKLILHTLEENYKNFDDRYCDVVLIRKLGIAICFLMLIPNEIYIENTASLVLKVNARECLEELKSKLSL
As to the kind of experiment: EMSA. The note with it: poly(dI-dC), EMSA: 20 ul with 2 ul buffer (stock 200 mM Tris, 500 mM Na glutamate, 100 mM MgCl2, 63.6 mM EDTA, 0.5% NP-40, 50% glycerol), 1 ug poly(dI-dC), 20 min room temperature, recombinant protein, residues 1-209, protein details: C-terminal His tag (pET29a(+)), probe letters rebuilt from the primers and the genome. Background: In EMSA bound probe runs differently from free probe, usually more slowly.

Where a protein sequence is shown, tags need not be part of it.

As to “GCCAACATTGCCTATAAGAGACACTATATCGCCTGAATTCATAAAAACACCTCCACATAAGTTTATATAAATCTATTATGCAGAATTTTTAGGAAGTGTACTTTTATTTTCGAAAGCTAGTAGAAAAAATTAATATATGGTGTAAAAATTTACTTAAAAAAACAATATGTGTTATAATGTAAATATAAATAAATAGGACTAGAGGCGATTTATAATGTGAAGATAAAGTATGTTAGAAAAGCTAAACATTATTAAATTTAGGAAGGTGACTTTTATGTTAAAGGATGAAGTAATTAAACAAATTAGCACGCCATTAAC (double strand) [adc probe (EMSA)]”, for the setting “0-0.9 ug protein”, the binding result is listed as “binds”.

As for “GGCAAGCTCATCTAATGATACATCCCCCTTAAAGCTCTTAATTTTTTCAATTCTATCTAAGATTTCATTTTTAGGGAAAAAGGTCTCCTGCCCAGTAAAGCTGGATTTCTTTATGAACCATTCCTCAGGTATAAGTTTCTTTCTCTTCCATCTATACAGCTGACCATAAGAAATATGAGTTATCTCAAGAAGTTCTTTTTTAGAAATTAAATTAGTTTCATCCATATAGCTATTCCTCCAGTTATTCTCTTCATGAATACAATATAACATAACATTGTTACGTTTGCAATAGGAAAGTTTTATTTCACACAAAAAACAGCTAAAATATAAATTTAGCTTGTTTCGAACTATAGATAAGGAGTGTTAATATTTATATGAAAATATACATTATCTTAAAATTGATGTTATAATATAGAGCATATATTAACTATAATCCACTACATAAGTGTAATTTATTATATAAAGATAATATTGGAGGAAAAAGATTGTGTTTATTTTATTATTAAAATACATAAAACCCGTTGAGGAAGTTGATAAAG (double strand) [CAP0037 probe (CA_P0037-CA_P0036 promoter, EMSA)]”, the binding result (0-0.6 ug protein) is “binds”.
